Reference: PubChem BioAssay AID1259254 (NCATS, 2017)
The deposit covers about 59,000 reagents; this is an unselected part. About 1,550 of all reagents (2.6%) were called active. 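G2 share is only a proxy for re-replication; each gene was hit by three separate siRNAs, and active genes were retested.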 The raw values are shown without normalisation. The record does not give: the amount of reagent.

Aim: 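Gene knock-downs that lead to re-replication, shown by excess G2 DNA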 (primary screen)
Cell system: human HCT116 colorectal cancer cells
Knock-down reagent: single siRNA against human genes
Duration: 3 days
Detection: 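Imaged Hoechst DNA stain sorts each cell into a cycle phase by DNA amount; per plate, G2 fraction set to 0% for non-targeting and 100% for GMNN siRNA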
Reading the numbers: G2 robust z-score and G2 cells, % of GMNN control: higher = more G2 cells, more excess DNA replication; raw share of cells in G2: higher = larger share of cells with G2 DNA content
Active means: 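An siRNA counts as active if its G2 robust z-score lies at least 5 MADs above the screen median; here such calls match roughly 38% of GMNN control or more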

The opening 3 records, to show the layout:
gene knocked down	PubChem SID	G2 robust z-score	G2 cells, % of GMNN control	raw share of cells in G2 (%)	outcome
UPK3B	SID160724573	0.0616	3.4	3.31	inactive
UPK3B	SID160750536	-0.0683	2.49	5.48	inactive
UPK3B	SID160750537	4.55	35	19.6	inactive

The list itself, from the start:
gene knocked down	PubChem SID	G2 robust z-score	G2 cells, % of GMNN control	raw share of cells in G2 (%)	outcome
UPK3B	SID160724573	0.0616	3.4	3.31	inactive
UPK3B	SID160750536	-0.0683	2.49	5.48	inactive
UPK3B	SID160750537	4.55	35	19.6	inactive
ANO2	SID160745592	0.243	4.67	6.19	inactive
ANO2	SID160745593	-0.358	0.45	4.67	inactive
ANO2	SID160745594	-0.792	-2.6	2.2	inactive
SH2B3	SID160724034	0.19	4.3	7.27	inactive
SH2B3	SID160724041	0.0326	3.2	5.28	inactive
SH2B3	SID160724050	-0.714	-2.06	2.66	inactive
MRPS27	SID160735462	1.61	14.3	10.6	inactive
MRPS27	SID160735463	0.167	4.14	5.85	inactive
MRPS27	SID160735464	-0.0752	2.44	4.09	inactive
SEMA6A	SID160746264	-0.377	0.314	4.46	inactive
SEMA6A	SID160746265	0.339	5.35	6.17	inactive
SEMA6A	SID160746266	3.4	26.9	16.8	inactive
PCDHB15	SID160731544	1.32	12.3	8.84	inactive
PCDHB15	SID160744808	1.8	15.6	13.3	inactive
PCDHB15	SID160744809	-0.0546	2.58	5.41	inactive
WNT8A	SID160718849	1.06	10.4	9.75	inactive
WNT8A	SID160718850	-0.438	-0.115	3.85	inactive
WNT8A	SID160718851	-0.00054	2.96	4.4	inactive
PFKP	SID160714179	-0.78	-2.52	4.77	inactive
PFKP	SID160714180	-1.27	-5.94	3.41	inactive
PFKP	SID160714181	-0.821	-2.81	3.04	inactive
RBM4B	SID160751399	2.28	19	13.3	inactive
RBM4B	SID160751400	0.0314	3.19	5.35	inactive
RBM4B	SID160751401	0.071	3.47	6.07	inactive
GLRX3	SID160728682	-1.19	-5.42	3.34	inactive
GLRX3	SID160728683	-0.405	0.117	6.52	inactive
GLRX3	SID160728685	-1.13	-4.95	2.24	inactive
NRXN1-DT	SID160773507	0.482	6.36	6.16	inactive
NRXN1-DT	SID160773508	0.673	7.7	6.67	inactive
NRXN1-DT	SID160773509	-0.598	-1.24	3.04	inactive
GGT1	SID160770632	-0.586	-1.16	5.16	inactive
GGT1	SID160770642	-0.154	1.88	5.57	inactive
GGT1	SID160770653	-0.878	-3.21	2.71	inactive
RNF217	SID160759410	0.0251	3.14	4.73	inactive
RNF217	SID160759411	-0.469	-0.334	2.85	inactive
RNF217	SID160759412	-0.283	0.973	3.07	inactive
EEIG1	SID160766824	0.763	8.34	6.84	inactive
EEIG1	SID160766825	-0.559	-0.965	3.13	inactive
EEIG1	SID160766827	-0.226	1.38	5.36	inactive
SACK1D	SID160735008	0.127	3.86	3.58	inactive
SACK1D	SID160750881	1.43	13	8.44	inactive
SACK1D	SID160750882	0.93	9.51	6.28	inactive
CCR8	SID160745069	1.2	11.4	9.92	inactive
CCR8	SID160745079	3.01	24.1	12.9	inactive
CCR8	SID160745090	-1.01	-4.1	2.01	inactive
RMP24	SID160751248	1.23	11.6	7.98	inactive
RMP24	SID160751249	-0.645	-1.57	2.99	inactive
RMP24	SID160751250	0.621	7.34	4.63	inactive
SLCO2A1	SID160716987	2.27	18.9	11	inactive
SLCO2A1	SID160716988	-0.651	-1.61	3.42	inactive
SLCO2A1	SID160716989	0.554	6.86	7.99	inactive
UBE2D3	SID160718527	0.253	4.75	6.03	inactive
UBE2D3	SID160718528	0.603	7.21	6.85	inactive
UBE2D3	SID160718529	-0.516	-0.664	5.32	inactive
CXXC5	SID160740929	-0.87	-3.15	2.48	inactive
CXXC5	SID160740930	0.0883	3.59	5.78	inactive
CXXC5	SID160740932	0.0105	3.04	4.2	inactive
UCHL5	SID160740713	0.629	7.39	8.14	inactive
UCHL5	SID160740714	0.612	7.27	7.48	inactive
UCHL5	SID160740716	-0.564	-1	3.54	inactive
ABLIM2	SID160752271	2.29	19.1	13.4	inactive
ABLIM2	SID160752272	-1.02	-4.23	3.22	inactive
ABLIM2	SID160752273	2.29	19.1	11.1	inactive
IFIT5	SID160736895	-0.216	1.45	4.46	inactive
IFIT5	SID160736897	-0.796	-2.64	4.97	inactive
IFIT5	SID160736898	2.03	17.3	9.93	inactive
